Among all 350,000 compounds or so, about 220 (0.063%) were called active. Inconclusive means that the source gave no clear call. Such entries were picked first, then a sample of the others. The call rests on the fitted dose curve; in most records, active means well fitted activation curve with a large enough effect; inconclusive means small, poorly fitted or top-dose-only effect; inactive means no such curve, though single readings can be large or run the other way. Where the call is inconclusive, the potency comes from a doubtful curve fit.
Test: qHTS for Activators of Integrin-Mediated Alleviation for Muscular Dystrophy; further: nearly all actives have a fitted effect of over 60% in size;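 on activation: 100% = response of the positive control SU9516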
Conditions: alpha7betagal myoblasts, beta-gal FDG fluorescence, 48 h; activation: at 38.3 µM (top of the series)
Outline: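 Alpha7betagal+/- myoblasts (passage 13) were plated 16-24 hr, then exposed to compounds (1:260 dilution of DMSO stock) for 48 hours at 37C. After MPER lysis, β-galactosidase reporter activity was read as FDG fluorescence (ex 480/em 540) after 30 minutes.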
Potency means the concentration at half of the fitted maximal effect.

Potency, inconclusive:
O=C(NCC(=O)N1CCc2ccccc2C1)c1ccc(Cl)cc1Cl 5.62 µM [activator, full curve, poor fit], O=C(NCc1ccc(N2CCCC2=O)cc1)c1cccc(Cl)c1 3.98 µM [activator, single point], Cc1nn(Cc2ccccc2)c(C)c1NS(=O)(=O)c1ccccc1 28.2 µM [activator, single point], COc1ccc(-c2ncncc2-c2ccccc2)c(O)c1 15.8 µM [activator, partial curve, poor fit], O=C(NCCCN1CCCC1=O)c1ccc(Cl)c(S(=O)(=O)N2CCCCC2)c1 2.24 µM [activator, partial curve, poor fit], Cc1ccc(S(=O)(=O)CC(=O)Nc2cc(C)on2)cc1 10 µM [activator, single point], Cc1cccc(C(=O)NC2CCCCCCC2)c1 8.91 µM [activator, partial curve, poor fit], O=C(OCCOCn1cc(Br)c(=O)[nH]c1=O)c1ccccc1 2.82 µM [activator, single point], O=C(CN1C(=O)NC2(CCCCCCC2)C1=O)NC1CCCc2ccccc21 (stereo unspecified) 5.01 µM [activator, single point], COc1cccc(C(=O)/C=C2\Sc3ccccc3N2C)c1 3.55 µM [activator, single point], O=C(CN(CC1CCCO1)C(=O)CNS(=O)(=O)c1ccc(Cl)cc1)NC1CCCCC1 (stereo unspecified) 2.82 µM [activator, single point], Cc1cc(C)nc(NC2=N[C@@H]3CCCC[C@H]3N2C(=O)Nc2cc(Cl)cc(Cl)c2)n1 10 µM [activator, single point]

Potency, inactive:
COc1ccccc1NC(=O)C(=O)N1N=C(C(C)C)CC1(O)C(F)(F)F (stereo unspecified), N=C1C(c2nc3ccccc3s2)=C(O)CN1Cc1ccco1, Cc1cc(OCC(=O)NNC(=S)NC(=O)c2cccs2)ccc1Cl, O=C1/C(=C/c2ccccc2)SC(=S)N1C1CCS(=O)(=O)C1 (stereo unspecified), COc1ccccc1-c1nnc(NC(=O)c2ccc(S(=O)(=O)N(C)CC3CCCO3)cc2)o1 (stereo unspecified), Nc1nc2ccccc2n1/N=C/c1ccc2c(c1)OCO2, S=C(c1ccc(N2CCCC2)cc1)N1CCCCC1, CCN(CC)CCOC(=O)c1ccc([N+](=O)[O-])cc1

activation, inconclusive:
Cc1nc(CC(=O)c2ccc(O)c(C)c2O)cs1 5.73% [activator]

From PubChem BioAssay AID624291 (National Center for Advancing Translational Sciences (NCATS), 2012)
